PubChem BioAssay AID504444 (National Center for Advancing Translational Sciences (NCATS), 2011)
Out of some 360,000 compounds screened, about 7,500 (2.1%) were called active. The inconclusive results got no clear call from the source; some entries with a clear call stand among them for comparison. Calls come from the whole dose curve; as a rule, active = well fitted inhibition curve with a large enough effect; inconclusive = small, poorly fitted or top-dose-only effect, or effect the other way; inactive = flat fitted curve, though single readings scatter. Where the call is inconclusive, the potency comes from a doubtful curve fit.

experiment: Nrf2 qHTS screen for inhibitors; settings: A549 ARE-Fluc reporter, luciferase luminescence, 18-24 h; activity change, negative = inhibition: at 46 µM (top of the series); note: nearly all actives have a fitted effect of over 60% in size
In short: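 Nrf2 function is reported as luminescence of an ARE-controlled luciferase in A549 cells. Compounds were tested at several concentrations, and a CellTiter-Fluor read on the same wells flagged cytotoxicity.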
% is set by controls: 0 for no effect and ±100 for the full control effect; potency is the fitted concentration of half-maximal effect.

Row | Structure (SMILES) | Potency | activity change, negative = inhibition
1 | Fc1ccc(CSc2ccc(-c3ccco3)nn2)cc1 | inconclusive: 6.51 µM [activator, full curve] | 
2 | CCCC1=C(C(=O)OCC)C(c2ccc(NC(C)=O)cc2)NC(=O)N1 (stereo not drawn) | inconclusive: 16.4 µM [falling, partial curve, poor fit] | 
3 | CCCCC12CN3CC(C)(CN(C1)C3c1c(C)[nH]c(=O)[nH]c1=O)C2=O (stereo not drawn) |  | inactive: -5.06%
4 | Cn1nc(C(F)(F)F)c2cc(C(=O)Nc3ccc(Cl)cc3)sc21 | inconclusive: 13 µM [falling, partial curve] | 
5 | CC1CCCN(S(=O)(=O)c2ccc(C(=O)Nc3nnc(C4CC4)o3)cc2)C1 (stereo not drawn) | active: 5.8 µM | 
6 | Cc1cc(NC(=O)CN(C)S(=O)(=O)c2ccc3c(c2)CCC(=O)N3)ccc1Br | inconclusive: 29.1 µM [falling, single point] | 
7 | O=C(NCCc1ccccc1)c1ccccc1SCC(=O)N1CCCC1 | inconclusive: 1.64 µM [activator, partial curve] | 
8 | CC(C)Nc1nc(NC(C)C)nc(OCCOC(=O)Nc2ccccc2)n1 | inconclusive: 29.1 µM [falling, single point] | 
9 | CCN1CCN(c2nc(C)c3c(n2)CC(C)CC3=O)CC1 (stereo not drawn) | inconclusive: 32.6 µM [falling, single point] | 
10 | Cc1nn2c(-c3cccc(NC(=O)CSc4nc5ccccc5o4)c3)nnc2c2ccccc12 | inconclusive: 10.3 µM [falling, partial curve, poor fit] | 
11 | COc1ccccc1CC(=O)N1CCN(S(=O)(=O)c2cccs2)CC1 |  | inactive: 6.89%
12 | Cc1cccc(C(CC(=O)NCC2(c3ccccc3)CCCC2)c2ccccc2)c1O (stereo not drawn) | active: 14.6 µM | 
13 | COc1ccc(Br)cc1CN(C)CC(=O)Nc1cccc(S(=O)(=O)N2CCCC2)c1 | inconclusive: 18.4 µM [falling, single point] | 
14 | Cc1cc2ccc3ccccc3c2cc1CN(C)C | inconclusive: 20.6 µM [activator, partial curve, poor fit] | 
15 | CN(c1ccc(Cl)cc1)c1cc(=O)n(C)c2ccccc12 | inconclusive: 22.4 µM [falling, partial curve, poor fit] | 
16 | CN(c1ccccc1)S(=O)(=O)c1cccc(NC(=O)CC(C)(C)C)c1 | inconclusive: 18.4 µM [falling, partial curve, poor fit] | 
17 | COC(=O)NC(=S)Nc1ccc(Oc2ccc(Cl)cc2Cl)c(Cl)c1 | inconclusive: 16.4 µM [falling, single point] | 
18 | N/C(=N\OC(=O)c1ccccc1Br)c1cccc([N+](=O)[O-])c1 | inconclusive: 2.91 µM [activator, full curve] | 

Single records, from the list above.
CCN1CCN(c2nc(C)c3c(n2)CC(C)CC3=O)CC1 (stereo not drawn) in the list: Potency: inconclusive: 32.6 µM [falling, single point]
CCCCC12CN3CC(C)(CN(C1)C3c1c(C)[nH]c(=O)[nH]c1=O)C2=O (stereo not drawn) in the list: activity change, negative = inhibition: inactive: -5.06%
